# About 4,300 (3.1%) of roughly 140,000 compounds were called active. The inconclusive results got no clear call from the source; some entries with a clear call stand among them for comparison.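 Rule for the calls: active = readout at or below -70, meaning at least 70% loss of cells showing the perinucleolar compartment, a nuclear body marking cancer cells; inconclusive = readout between -30 and a set limit; inactive = the rest.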
# Test: High Content Assay for Compounds that inhibit the Assembly of the Perinucleolar Compartment;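 note: plate controls were DMSO wells for no effect and camptothecin positive control wells for full effect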
# Conditions: PC3M PTB-GFP, PNC prevalence imaging, 16 h; at 10 µM; stronger effect = lower value
# How it was run: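 Compounds are pinned in duplicate onto adhered PC3M cells stably expressing GFP-tagged PTB and incubated 16 h at 37 C. Cells are then fixed, nuclei stained with Hoechst, and PNC-positive cells counted.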
row,SMILES,"activity change (PNC), negative = inhibition"
1,CC(=O)c1ccc(N2Cc3ccccc3/C2=N\C(=O)Nc2ccc(Cl)cc2)cc1,inconclusive: -64.6%
2,NC(=O)C1(N2CCCCC2)CCN(C(=O)CSc2nc3ccccc3s2)CC1,inconclusive: -34.4%
3,O=C(CN1CCN(c2ccccn2)CC1)Nc1ccc(Cl)c(C(F)(F)F)c1,inconclusive: -41.1%
4,CCCCCCCn1ccc(=N)cc1,inactive: 9.5%
5,CCOC(=O)c1ccc(NC(=O)CN(C)S(=O)(=O)c2ccc(OC)cc2)cc1,inconclusive: -61.3%
6,CC(=O)Nc1c(O)[nH]c2ccccc12,active: -98%
7,CCOC(=O)C(=O)Nc1ccccc1C#N,inconclusive: -63.5%
8,OCCCCNCc1ccc(OCc2ccccc2)cc1,inconclusive: -34.8%
9,CCOC(=O)c1c(NC(=O)CN2CCCCC2)sc2c1CCCC2O (stereo not given),inconclusive: -32.4%
10,CCOC(=O)C1(C(F)(F)F)N=C(C(F)(F)F)Nc2cc(C)c(C)cc21 (stereo not given),inconclusive: -33%
11,CCOC(=O)c1c(-c2cccc(C)c2)csc1NC(=O)c1c(-c2ccccc2)noc1C,active: -101%
12,O=S(=O)(CC12C3C4C5C1C2C(Br)(C43)C51OCCO1)c1ccccc1 (stereo not given),inactive: 5.47%
13,CCOc1ccc(C2c3cc(OC)c(OC)cc3CC(=O)N2c2ccc(OC)cc2)cc1 (stereo not given),inactive: 25.3%
14,Cn1c(SCC(=O)C(C)(C)C)nnc1-c1cccnc1,inactive: -6.32%
15,CCOc1ccc(C2c3c(oc4cc(C)c(C)cc4c3=O)C(=O)N2CCCN(C)C)cc1OC (stereo not given),inconclusive: -42.3%
16,COc1nc(-c2ccccc2)ccc1-c1noc(-c2ccccc2)n1,inconclusive: -40.8%
17,O=C(Oc1ccccc1)c1ccc(COC(=O)c2cnccn2)cc1,inconclusive: -74.1%
18,COc1ccc(-c2[nH]c(-c3ccc(C)cc3)nc2SCC(=O)Nc2nccs2)cc1,inconclusive: -79.3%
19,CCc1oc2ccccc2c1C(=O)c1cc(Br)c(O)c(Br)c1,inactive: 26%
20,CNS(=O)(=O)c1cccc(C(=O)Nc2cccnc2)c1,inactive: 8.23%
21,CC(/C=C/c1ccccc1)=N/NC(=O)CCC(=O)Nc1ccccc1C,inconclusive: -71.2%
22,CCc1cccc(C)c1NC(=O)COn1nnc2ccc(C(F)(F)F)cc21,inconclusive: -38%
23,CCCCNC(=O)CSc1nc2ccccc2n1S(=O)(=O)c1ccc(Cl)cc1,active: -119%

row,SMILES,"activity change (PNC), negative = inhibition"
1,O=S(=O)(c1ccc2ccccc2c1)N1CCC(c2nc(-c3ccncc3)no2)CC1,active: -100%
2,CC(=O)Nc1ccccc1OCC(=O)NC(C)c1ccc(F)cc1 (stereo not given),inconclusive: -46.2%
3,COc1ccc(OC)c(NC(=O)CSc2nnnn2-c2ccc3c(c2)OCO3)c1,inconclusive: -35.1%
4,O=C(Nc1nc(-c2cccs2)c(-c2cccs2)s1)C1(c2ccccc2)CC1,inconclusive: -43.7%
5,CS(=O)(=O)N(CC(N)=O)c1ccc2c(c1)OCO2,inconclusive: -37.5%
6,CCN1C=C(C(=O)OC)C(c2cccc(C)c2)C(C(=O)OC)=C1,active: -80.1%
7,COc1cccc(O[C@@H]2O[C@@H]3COC(C)(C)O[C@H]3[C@H](O)[C@H]2NC(C)=O)c1,inactive: -1.8%
8,Cc1ccc2c(c1)c1c3n2CCN=C3CCC1,inconclusive: -52%
9,O=S(=O)(Nc1ccc2c(c1)OCO2)c1cccs1,inactive: -1.86%
10,CCCCN(C(=S)NC(=O)c1cc(OC)c(OC)c(OC)c1)c1c(N)n(Cc2ccccc2)c(=O)[nH]c1=O,inactive: 45.9%
11,Cc1ccccc1N1OC2C(=O)N(c3ccc(F)cc3)C(=O)C2C1c1ccccn1 (stereo not given),inactive: -21.8%
12,COc1cc(-c2nnc(Cn3cc(C(F)(F)F)ccc3=O)o2)cc(OC)c1OC,inconclusive: -44.6%
13,C/C(N)=C(/C#N)C(=O)COC(=O)c1cc(S(=O)(=O)N2CCCCC2)ccc1C,inconclusive: -69.6%
14,COC(=O)Nc1sc2c(c1C(=O)NCc1ccco1)CCC2,inconclusive: -36.2%
15,Cc1nn(C)c(C(=O)Nc2ccc(S(=O)(=O)NC34CC5CC(CC(C5)C3)C4)cc2)c1Br,inconclusive: -44%
16,COCCCNC(=O)CN(c1cccc(Cl)c1)S(C)(=O)=O,inconclusive: -39.4%
17,Cc1cccc2cc(CN(Cc3ccc(F)cc3)C(=O)C(F)(F)F)c3nnnn3c12,inconclusive: -34.9%
18,CCCCNc1c([N+](=O)[O-])cc(C(=O)O)cc1[N+](=O)[O-],inconclusive: -60.5%
19,O=c1[nH]c(N2CCN(c3ccccc3)CC2)nc2c1CCCC2,inconclusive: -30.9%
20,COc1ccc(N(CC(=O)Nc2cccc(SC)c2)S(C)(=O)=O)cc1Cl,inconclusive: -32.2%
21,Cc1nc2scc(-c3ccccc3)c2c(=O)o1,inconclusive: -31.7%
22,CCOc1ccc2nc(Nc3nc4ccc(NC(C)=O)cc4s3)sc2c1,inactive: 10%

# Three records drawn at random from the list so far:
row,SMILES,"activity change (PNC), negative = inhibition"
21,Cc1nc2scc(-c3ccccc3)c2c(=O)o1,inconclusive: -31.7%
4,O=C(Nc1nc(-c2cccs2)c(-c2cccs2)s1)C1(c2ccccc2)CC1,inconclusive: -43.7%
12,COc1cc(-c2nnc(Cn3cc(C(F)(F)F)ccc3=O)o2)cc(OC)c1OC,inconclusive: -44.6%

# From PubChem BioAssay AID2417 (National Center for Advancing Translational Sciences (NCATS), 2010)
